Measurements reported in the supplement of paper PMC8166895.
Structures can show the parent of a compound that is named as a salt. The list shows a part of the results. Most values lie at the level of the controls, where differences are scatter.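 A single-replicate pilot screen of approved drugs and clinical or known-target compounds measured melting temperature via differential scanning fluorimetry. Top stabilizing hits raised the melting point by 2 °C or more; negative shifts indicate destabilization.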 Where a SMILES comes first, the peptide text is derived from it. [ ]: non-standard residue; d: D form.

System: SARS-CoV-2 main protease (Mpro, nsp5)
Assay: thermal shift ΔTm of Mpro relative to plate average Tm; higher = stronger thermal stabilization of Mpro (binding)
Details: 10 µM; protein concentration 1 µM

| SMILES | thermal shift ΔTm of Mpro |
| --- | --- |
| CC[N+](CC)(CC)CCOc1cccc(OCC[N+](CC)(CC)CC)c1OCC[N+](CC)(CC)CC [Gallamine Triethiodide] | -0.0781 °C |
| NCc1ccc(S(N)(=O)=O)cc1 [Mafenide hydrochloride] | 0.0535 °C |
| CN[C@@H]1[C@H](O[C@H]2[C@H](O[C@H]3[C@H](O)[C@@H](O)[C@H](NC(=N)N)[C@@H](O)[C@@H]3NC(=N)N)O[C@@H](C)[C@]2(O)CO)O[C@@H](CO)[C@H](O)[C@H]1O [Dihydrostreptomycin sulfate] | -0.195 °C |
| Cc1c[nH]c(/C=C2\C(=O)Nc3ccccc32)c1CCC(=O)O | 0.313 °C |
| O=C(NCCCNC(=O)c1ccc[nH]c1=O)c1cc(-c2ccccc2)on1 | -0.0597 °C |
| Cc1ccccc1N=Nc1ccc(NC(=O)c2ccnn2C)c(C)c1 | -0.214 °C |
| Cn1cc(-c2ccc(S(=O)(=O)n3ccc(/C=C/C(=O)Nc4ccccc4N)c3)cc2)cn1 | 1.14 °C |
| Cn1cc(-c2ccc(S(=O)(=O)n3ccc(/C=C/C(=O)Nc4ccccc4N)c3)cc2)cn1 [4SC-202 tosylate] | 0.275 °C |
| CC/C(=C(\c1ccccc1)c1ccc(OCCN(C)C)cc1)c1ccccc1 [Tamoxifen Citrate] | 0.134 °C |
| CCc1oc2ccccc2c1C(=O)c1cc(Br)c(O)c(Br)c1 [Benzbromarone] | 0.435 °C |
| NC1=N[C@@](c2cccc(-c3cncnc3)c2)(c2ccnc(C(F)F)c2)c2cccc(F)c21 | -0.451 °C |
| COC(=O)[C@]12CCC(C)(C)C[C@H]1[C@H]1C(=O)C=C3[C@@]4(C)C=C(C#N)C(=O)C(C)(C)[C@@H]4CC[C@@]3(C)[C@]1(C)CC2 [Bardoxolone Methyl] | -1.31 °C |
| CCCCC[C@H](O)/C=C/[C@H]1[C@H](O)CC(=O)[C@@H]1CCCCCCC(=O)O [Alprostadil] | 0.545 °C |
| CC(=O)Nc1ccc(C(=O)O)cc1 [Acedoben] | 0.0395 °C |
| C(#Cc1nc2ncccc2nc1OCCN1CCCC1)c1ccccc1 | -0.0265 °C |
| O=C(O)c1ccccc1 [Benzoic Acid] | -0.095 °C |
| CC[C@@H]([C@H](C)O)n1ncn(-c2ccc(N3CCN(c4ccc(OC[C@@H]5CO[C@@](Cn6cncn6)(c6ccc(F)cc6F)C5)cc4)CC3)cc2)c1=O [Posaconazole] | -0.13 °C |
| CN1CCC[C@@H]1CCO[C@](C)(c1ccccc1)c1ccc(Cl)cc1 [Clemastine Fumarate] | 0.00565 °C |
| CCOc1ccc(NC(C)=O)cc1 [Phenacetin] | -0.0653 °C |
| O=C(c1ccc(OCCCc2c[nH]cn2)cc1)C1CC1 [Ciproxifan] | -0.154 °C |
| CC(C)[C@H](N)C(=O)OCC(CO)OCn1cnc2c(=O)[nH]c(N)nc21 (some centres undefined) [Valganciclovir HCl] | 0.119 °C |
| CC(C(=O)O)c1ccc(C(=O)c2cccs2)cc1 (centres undefined) [Suprofen] | 0.043 °C |
| COc1cc2ncnc(Nc3ccc(F)c(Cl)c3)c2cc1OCCCN1CCOCC1 [Gefitinib (ZD1839)] | -0.0742 °C |
| CN1CCN(c2nc(C3=C(c4c[nH]c5ccccc45)C(=O)NC3=O)c3ccccc3n2)CC1 [Sotrastaurin] | -0.0461 °C |
| CN(C)c1cccc(-c2c3c(=O)n(-c4ccccc4Cl)[nH]c3cc(=O)n2C)c1 | -0.116 °C |

Rewritten field by field: part of the list above.
CCc1oc2ccccc2c1C(=O)c1cc(Br)c(O)c(Br)c1 [Benzbromarone]
  thermal shift ΔTm of Mpro: 0.435 °C
NC1=N[C@@](c2cccc(-c3cncnc3)c2)(c2ccnc(C(F)F)c2)c2cccc(F)c21
  thermal shift ΔTm of Mpro: -0.451 °C
COC(=O)[C@]12CCC(C)(C)C[C@H]1[C@H]1C(=O)C=C3[C@@]4(C)C=C(C#N)C(=O)C(C)(C)[C@@H]4CC[C@@]3(C)[C@]1(C)CC2 [Bardoxolone Methyl]
  thermal shift ΔTm of Mpro: -1.31 °C
CCCCC[C@H](O)/C=C/[C@H]1[C@H](O)CC(=O)[C@@H]1CCCCCCC(=O)O [Alprostadil]
  thermal shift ΔTm of Mpro: 0.545 °C

Remaining list, next part.

| SMILES | thermal shift ΔTm of Mpro |
| --- | --- |
| Cc1nc(C#Cc2ccnc(Cl)c2)c(C)n1-c1ccc(OC(F)(F)F)cc1 | -0.284 °C |
| CN1[C@@H]2CC[C@H]1C[C@@H](OC(=O)C(CO)c1ccccc1)C2 (some centres undefined) [Atropine] | 0.199 °C |
| OC[C@H]1O[C@@H](c2ccc(Cl)c(Cc3ccc(O[C@H]4CCOC4)cc3)c2)[C@H](O)[C@@H](O)[C@@H]1O | -0.171 °C |
| CCOc1ccccc1-n1c(C(C)N2CCN(C(=O)COc3ccc(Cl)cc3)CC2)nc2ccccc2c1=O (centres undefined) [Erastin] | -0.151 °C |
| COc1ccc(C2CC(c3ccccc3)=NN2c2ccc(S(N)(=O)=O)cc2)cc1 (centres undefined) | 0.929 °C |
| Cc1cc(-c2ccc(CC(=O)Nc3ccc(-c4cccnc4)cc3)cc2)ccn1 | -0.0912 °C |
| Cc1cc(Nc2cc(N3CCN(C)CC3)nc(/C=C/c3ccccc3)n2)n[nH]1 | -0.0421 °C |
| Cc1cc(Nc2cc(N3CCN(C)CC3)nc(/C=C/c3ccccc3)n2)n[nH]1 [ENMD-2076 L-(+)-Tartaric acid] | 0.00704 °C |
| COCCOc1ccc2c(c1)ncn2-c1ccc2cccc(N3CCC(N)CC3)c2n1 | -0.127 °C |
| CCCC(=O)[O-].[Na+] [Sodium butanoate] | 0.181 °C |
| COC(=O)C1=C(C)NC(C)=C(C(=O)OCC(C)C)C1c1ccccc1[N+](=O)[O-] (centres undefined) [Nisoldipine] | -0.0216 °C |
| O=C1Cc2c([nH]c3ccc(Br)cc23)-c2ncccc2N1 [1-Azakenpaullone] | -0.0343 °C |
| Oc1cc(O)c(Cl)cn1 [Gimeracil] | 0.153 °C |
| COc1ccc(N2C(=O)/C(=C\c3ccc([N+](=O)[O-])s3)SC2=S)cc1 | 0.0066 °C |
| CC[C@@H]1/C=C(\C)C[C@H](C)C[C@H](OC)[C@H]2O[C@@](O)(C(=O)C(=O)N3CCCC[C@H]3C(=O)O[C@H](/C(C)=C/[C@@H]3CC[C@@H](O)[C@H](OC)C3)[C@H](C)[C@@H](O)CC1=O)[C@H](C)C[C@@H]2OC [Ascomycin (FK520)] | -0.257 °C |
| Cn1cc(-c2[nH]c3cc(NC(=O)[C@H](N)C4CCCCC4)cc4c3c2C=NNC4=O)cn1 | 0.091 °C |
| CC1(C)CNc2cc(NC(=O)c3cccnc3NCc3ccncc3)ccc21 [Motesanib] | 0.048 °C |
| CC1(C)CNc2cc(NC(=O)c3cccnc3NCc3ccncc3)ccc21 [Motesanib Diphosphate (AMG-706)] | -0.12 °C |
| CC(=O)N[C@H](Cc1ccc(O)cc1)C(=O)N[C@H](CCCN=C(N)N)C(=O)N[C@H](Cc1ccccc1)C(N)=O (Ac-[dY]-[dR]-[dF]-NH2) | -0.267 °C |
| O=C1CCc2ccc(OCCCCN3CCN(c4cccc(Cl)c4Cl)CC3)cc2N1 [Aripiprazole] | 0.0388 °C |
| CN(C)CCOC(c1ccc(Cl)cc1)c1ccccn1 (centres undefined) [Carbinoxamine Maleate Salt] | 0.286 °C |
| O=C(O)CNC(=O)c1nc(Cl)c2ccccc2c1O | 0.165 °C |
| CCC(Sc1nnc2c(n1)[nH]c1ccccc12)C(=O)N1c2ccccc2Sc2ccccc21 (centres undefined) [Inauhzin] | 0.0527 °C |
| NCCCC(N)(C(=O)O)C(F)F (centres undefined) [Eflornithine hydrochloride Monohydrate] | 0.105 °C |
